The values that follow come from paper PMC5440525.

Sequences of proteins named here, by UniProt entry; tags and fusion partners are left off. A change or cut given only in a name is not applied to a line headed by its entry.
UniProt P20029: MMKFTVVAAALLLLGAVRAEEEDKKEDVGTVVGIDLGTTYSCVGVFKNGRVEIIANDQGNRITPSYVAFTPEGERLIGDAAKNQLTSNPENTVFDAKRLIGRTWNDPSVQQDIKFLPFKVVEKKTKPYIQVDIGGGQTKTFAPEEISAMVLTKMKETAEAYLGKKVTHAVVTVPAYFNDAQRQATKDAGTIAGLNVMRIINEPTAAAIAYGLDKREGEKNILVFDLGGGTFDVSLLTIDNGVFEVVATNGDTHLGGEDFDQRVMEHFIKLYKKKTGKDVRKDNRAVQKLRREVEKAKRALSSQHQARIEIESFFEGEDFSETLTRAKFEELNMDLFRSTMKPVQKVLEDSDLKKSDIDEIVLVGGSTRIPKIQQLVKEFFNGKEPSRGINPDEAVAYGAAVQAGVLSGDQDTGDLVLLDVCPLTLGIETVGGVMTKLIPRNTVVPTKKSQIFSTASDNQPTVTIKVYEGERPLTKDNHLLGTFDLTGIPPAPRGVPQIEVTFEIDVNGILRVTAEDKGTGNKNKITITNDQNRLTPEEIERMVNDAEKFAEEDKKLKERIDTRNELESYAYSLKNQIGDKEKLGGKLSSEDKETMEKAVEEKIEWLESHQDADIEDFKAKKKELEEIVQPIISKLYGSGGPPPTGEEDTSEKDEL

The target in the assay is T1, Recombinant fusion protein CD14-Fc (mouse) (UniProt P10810).
T1 sequence: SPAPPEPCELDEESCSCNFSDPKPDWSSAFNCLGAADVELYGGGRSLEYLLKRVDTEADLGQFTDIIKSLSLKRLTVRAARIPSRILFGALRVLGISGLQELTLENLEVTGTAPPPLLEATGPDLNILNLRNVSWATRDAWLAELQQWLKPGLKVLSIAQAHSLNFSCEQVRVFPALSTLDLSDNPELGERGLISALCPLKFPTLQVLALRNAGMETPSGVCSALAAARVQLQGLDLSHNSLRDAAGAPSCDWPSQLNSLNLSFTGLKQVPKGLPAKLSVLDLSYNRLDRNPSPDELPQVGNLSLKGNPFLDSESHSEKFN
Briefly: pull-down; protein–protein interactive precipitation assay: CD14-Fc or Fc control immobilized onto protein G-agarose, incubated with GRP78 at 4°C overnight; immunoblot; both purified. (A western blot detects proteins with antibodies after separation by electrophoresis.)

These are yes or no findings as the source states them, for the method shown. A result given as binding can be weak or reduced; the word gives no strength. Tags and fused reporters may be left off the sequences shown.

Turning to “Recombinant mouse GRP78 (GST removed by thrombin cleavage) (from UniProt P20029)”, the binding result is given as “binds”.
